Data source: PubChem BioAssay AID1259405 (NCATS, 2018)
Aim: 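Mouse-designed siRNAs used to find CHO productivity engineering targets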 (primary screen). System: Chinese hamster CHO-K1 ovary cells with stable secreted eGFP expression. Reagent: single siRNA against mouse genes, 0.8 pmol siRNA per well (2 µl of 400 nM stock). Duration: 3 days. Detection: 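Per-well intracellular GFP measured by laser scanning cytometry, plus viability from ATP luminescence, each relative to plate median of non-targeting control wells, in %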. Scale: GFP, % of control: higher = more GFP per well, higher productivity; viability (ATP), % of control: higher = more viable cells (more ATP). Hit rule: 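Called active when intracellular GFP, relative to negative control, is at or above 120%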.
The deposit covers about 50,000 reagents; shown is an unselected part. Of all reagents, about 4,000 (8%) got an active call. 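Mouse siRNA library applied to hamster cells; one well for each siRNA.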 A number with no mark means an inactive call. The numbers tell different reagents against one gene apart.

| gene | siRNA no. | GFP, % of control | viability (ATP), % of control |
| --- | --- | --- | --- |
| Pim2 | 1 | 41.9 | 45.6 |
| Tonsl | 1 | 116 | 53.4 |
| Tonsl | 2 | 30.5 | 97.6 |
| Tonsl | 3 | 109 | 88.6 |
| Fbxo2 | 1 | 61.7 | 67.1 |
| Fbxo2 | 2 | 91.6 | 78.1 |
| Fbxo2 | 3 | 50.1 | 66.6 |
| Farp2 | 1 | 44.2 | 34.1 |
| Farp2 | 2 | 93.2 | 90.3 |
| Farp2 | 3 | 87.4 | 52.3 |
| Abhd1 | 1 | 89.9 | 73.4 |
| Abhd1 | 2 | 67.6 | 61.7 |
| Abhd1 | 3 | 119 | 102 |
| Dcbld1 | 1 | 69.4 | 60.2 |
| Dcbld1 | 2 | 72.3 | 83.6 |
| Dcbld1 | 3 | 77 | 82 |
| Rac1 | 1 | 95.7 | 69.3 |
| Rac1 | 2 | 62.4 | 96.8 |
| Rac1 | 3 | 69 | 99.5 |
| Lrrtm3 | 1 | 61.7 | 48 |
| Lrrtm3 | 2 | 73.4 | 75 |
| Lrrtm3 | 3 | 76.1 | 102 |
| Sdccag8 | 1 | 91.1 | 89.4 |
| Sdccag8 | 2 | 60.5 | 68.3 |
| Sdccag8 | 3 | 96.1 | 75.9 |
| Grwd1 | 1 | 56.2 | 76.8 |
| Grwd1 | 2 | 168 (active) | 67.9 |
| Grwd1 | 3 | 93.7 | 70.9 |
| Grwd1 | 4 | 123 (active) | 90.8 |
| Grwd1 | 5 | 96.2 | 76.1 |
| Grwd1 | 6 | 63.2 | 76.7 |
| Defb1 | 1 | 54.4 | 55.9 |
| Defb1 | 2 | 74.1 | 86 |
| Defb1 | 3 | 57.6 | 64.1 |
| Fam91a1 | 1 | 91.1 | 83.6 |
| Fam91a1 | 2 | 78.9 | 76.2 |
| Fam91a1 | 3 | 125 (active) | 127 |
| Syngr1 | 1 | 91 | 88.2 |
| Syngr1 | 2 | 118 | 89.4 |
| Syngr1 | 3 | 82.6 | 54.3 |
| Mrpl57 | 1 | 56 | 43.5 |
| Mrpl57 | 2 | 97.4 | 82.9 |
| Mrpl57 | 3 | 68 | 58.8 |
| Slc29a2 | 1 | 63.5 | 84.1 |
| Slc29a2 | 2 | 73.3 | 91.5 |
| Slc29a2 | 3 | 111 | 104 |
| Vmn1r54 | 1 | 34.8 | 50 |
| Vmn1r54 | 2 | 79 | 56.4 |
| Vmn1r54 | 3 | 50.8 | 78.4 |
| Cpeb2 | 1 | 56 | 57.3 |
| Cpeb2 | 2 | 29 | 43.3 |
| Cpeb2 | 3 | 36.4 | 73 |
| Nostrin | 1 | 99.2 | 75.5 |
| Nostrin | 2 | 178 (active) | 79.9 |
| Nostrin | 3 | 90.9 | 81.6 |
| Ric8a | 1 | 64 | 65.6 |
| Ric8a | 2 | 54.1 | 41.1 |
| Ric8a | 3 | 76.6 | 74.8 |
| Hmgcr | 1 | 75.3 | 92.5 |
| Hmgcr | 2 | 91 | 96.8 |
| Hmgcr | 3 | 25.8 | 56.2 |
| Dusp23 | 1 | 54.7 | 54.3 |
| Dusp23 | 2 | 91.1 | 86 |
| Dusp23 | 3 | 79.6 | 56.9 |
| Mcf2 | 1 | 129 (active) | 86.2 |
| Mcf2 | 2 | 38.4 | 57.2 |
| Mcf2 | 3 | 88.1 | 70.5 |
| Wnt10a | 1 | 116 | 74.7 |
| Wnt10a | 2 | 62.7 | 60 |
| Wnt10a | 3 | 102 | 65.7 |

Laid out differently: entries from further up
gene | siRNA no. | GFP, % of control | viability (ATP), % of control
Abhd1 | 2 | 67.6 | 61.7
Abhd1 | 3 | 119 | 102
Dcbld1 | 1 | 69.4 | 60.2
Dcbld1 | 2 | 72.3 | 83.6
Dcbld1 | 3 | 77 | 82
Rac1 | 1 | 95.7 | 69.3
Rac1 | 2 | 62.4 | 96.8
Rac1 | 3 | 69 | 99.5
Lrrtm3 | 1 | 61.7 | 48
Lrrtm3 | 2 | 73.4 | 75
Lrrtm3 | 3 | 76.1 | 102
Sdccag8 | 1 | 91.1 | 89.4
Sdccag8 | 2 | 60.5 | 68.3
Sdccag8 | 3 | 96.1 | 75.9
Grwd1 | 1 | 56.2 | 76.8
Grwd1 | 2 | 168 (active) | 67.9
Grwd1 | 3 | 93.7 | 70.9

Further entries:
| gene | siRNA no. | GFP, % of control | viability (ATP), % of control |
| --- | --- | --- | --- |
| Fmo5 | 1 | 85.4 | 104 |
| Fmo5 | 2 | 100 | 72 |
| Fmo5 | 3 | 58.4 | 52.7 |
| Obi1 | 1 | 40.6 | 27.3 |
| Obi1 | 2 | 152 (active) | 56.5 |
| Obi1 | 3 | 89.8 | 81.2 |
| Osbpl2 | 1 | 70.6 | 70.6 |
| Osbpl2 | 2 | 100 | 85.6 |
| Osbpl2 | 3 | 60.4 | 80.8 |
| Rlbp1 | 1 | 96.2 | 97.5 |
| Rlbp1 | 2 | 41.2 | 64.7 |
| Rlbp1 | 3 | 87.2 | 75.7 |
| Aldob | 1 | 101 | 92.9 |
| Aldob | 2 | 93.7 | 93.2 |
| Aldob | 3 | 37.9 | 35.3 |
| Barx2 | 1 | 166 (active) | 126 |
| Barx2 | 2 | 34.5 | 35.6 |
| Barx2 | 3 | 71.4 | 68.4 |
| Fam111a | 1 | 104 | 96.9 |
| Fam111a | 2 | 46.7 | 57 |
| Fam111a | 3 | 84.6 | 115 |
| Rex2 | 1 | 55 | 64.8 |
| Rex2 | 2 | 63.4 | 72.8 |
| Rex2 | 3 | 104 | 95.6 |
| Trip6 | 1 | 100 | 89.3 |
| Trip6 | 2 | 79.9 | 98.3 |
| Cnot11 | 1 | 80.5 | 106 |
| Cnot11 | 2 | 94.9 | 107 |
| Cnot11 | 3 | 90.4 | 73.2 |
| Cux2 | 1 | 97 | 56.6 |
| Cux2 | 2 | 56.4 | 62.2 |
| Cux2 | 3 | 99.3 | 102 |
| Slc10a1 | 1 | 136 (active) | 67.2 |
| Slc10a1 | 2 | 57.5 | 52.2 |
| Slc10a1 | 3 | 76.9 | 48.5 |
| Fbxo16 | 1 | 66.9 | 72.5 |
| Fbxo16 | 2 | 80.1 | 54.2 |
| Fbxo16 | 3 | 84.9 | 75.7 |
